Laboratory results published in patent US20260097126A1 (priority 2022, published 2026).

Assay: Fmoc solid-phase peptide synthesis; Rink resin; diimide, HATU, or HBTU
Settings: whole synthesis, RP-HPLC

PEPTIDE1{Y.[Aib].E.G.T.F.T.S.D.Y.S.I.[Aib].L.D.K.I.A.Q.Q.A.F.V.Q.W.L.I.A.G.G.P.S.S.G.A.P.P.P.S.[am]}|PEPTIDE2{[PhosC19].[gGlu].[PEG2].[PEG2]}$PEPTIDE1,PEPTIDE2,16:R3-4:R2$$$V2.0
final HPLC purity: 95.0%

Some peptides are written in HELM: one residue between dots, names in brackets for other building blocks, links after the first $.
